# Screening data, single-dose tests

The chains behind the UniProt entries cited, without tags or fusion partners. Residues count along the entry.
UniProt I6X8D2, whole entry: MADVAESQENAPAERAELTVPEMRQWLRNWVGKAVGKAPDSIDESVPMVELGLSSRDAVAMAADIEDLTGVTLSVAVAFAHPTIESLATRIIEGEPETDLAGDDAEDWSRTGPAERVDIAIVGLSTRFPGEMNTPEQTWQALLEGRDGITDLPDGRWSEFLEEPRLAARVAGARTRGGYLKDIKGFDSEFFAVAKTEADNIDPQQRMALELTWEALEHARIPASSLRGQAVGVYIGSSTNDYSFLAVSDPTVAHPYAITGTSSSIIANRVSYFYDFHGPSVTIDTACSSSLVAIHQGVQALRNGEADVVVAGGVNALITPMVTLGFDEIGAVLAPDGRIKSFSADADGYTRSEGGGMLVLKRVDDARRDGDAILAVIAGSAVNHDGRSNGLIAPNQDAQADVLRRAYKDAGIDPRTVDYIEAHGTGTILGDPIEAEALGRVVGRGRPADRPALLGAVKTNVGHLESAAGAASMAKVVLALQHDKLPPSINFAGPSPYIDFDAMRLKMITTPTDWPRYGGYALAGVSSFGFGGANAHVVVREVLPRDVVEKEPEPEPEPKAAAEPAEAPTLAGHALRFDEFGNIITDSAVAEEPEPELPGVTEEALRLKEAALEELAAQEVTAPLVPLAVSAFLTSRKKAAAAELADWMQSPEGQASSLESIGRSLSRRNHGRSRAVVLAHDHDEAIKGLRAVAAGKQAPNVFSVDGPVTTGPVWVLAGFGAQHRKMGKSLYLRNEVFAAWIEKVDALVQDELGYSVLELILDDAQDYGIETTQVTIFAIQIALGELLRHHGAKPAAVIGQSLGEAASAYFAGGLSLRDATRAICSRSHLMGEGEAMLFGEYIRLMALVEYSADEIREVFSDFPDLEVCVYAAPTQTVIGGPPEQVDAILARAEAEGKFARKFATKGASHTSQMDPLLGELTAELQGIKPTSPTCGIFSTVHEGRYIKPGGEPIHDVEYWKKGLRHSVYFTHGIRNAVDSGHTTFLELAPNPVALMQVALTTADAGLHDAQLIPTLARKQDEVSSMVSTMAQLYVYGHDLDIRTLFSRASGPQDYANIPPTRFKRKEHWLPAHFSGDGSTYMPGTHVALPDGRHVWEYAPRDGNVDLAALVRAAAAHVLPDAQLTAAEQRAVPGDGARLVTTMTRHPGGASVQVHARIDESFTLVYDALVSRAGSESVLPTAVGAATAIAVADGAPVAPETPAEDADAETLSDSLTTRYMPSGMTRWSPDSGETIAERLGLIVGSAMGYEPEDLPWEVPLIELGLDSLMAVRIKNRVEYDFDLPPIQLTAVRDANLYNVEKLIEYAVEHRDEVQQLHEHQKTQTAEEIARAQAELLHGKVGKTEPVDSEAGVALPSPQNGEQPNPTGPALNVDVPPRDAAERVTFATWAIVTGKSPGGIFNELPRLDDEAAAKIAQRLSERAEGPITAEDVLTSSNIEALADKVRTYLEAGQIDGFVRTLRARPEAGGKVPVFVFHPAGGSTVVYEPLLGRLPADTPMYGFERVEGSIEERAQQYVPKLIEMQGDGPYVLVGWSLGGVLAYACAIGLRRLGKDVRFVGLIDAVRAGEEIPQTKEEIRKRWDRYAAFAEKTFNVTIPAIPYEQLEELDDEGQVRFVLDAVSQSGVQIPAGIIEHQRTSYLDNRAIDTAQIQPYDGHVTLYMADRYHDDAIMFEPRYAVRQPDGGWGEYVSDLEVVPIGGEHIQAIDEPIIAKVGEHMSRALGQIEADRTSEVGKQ
UniProt A4I591, 1-473: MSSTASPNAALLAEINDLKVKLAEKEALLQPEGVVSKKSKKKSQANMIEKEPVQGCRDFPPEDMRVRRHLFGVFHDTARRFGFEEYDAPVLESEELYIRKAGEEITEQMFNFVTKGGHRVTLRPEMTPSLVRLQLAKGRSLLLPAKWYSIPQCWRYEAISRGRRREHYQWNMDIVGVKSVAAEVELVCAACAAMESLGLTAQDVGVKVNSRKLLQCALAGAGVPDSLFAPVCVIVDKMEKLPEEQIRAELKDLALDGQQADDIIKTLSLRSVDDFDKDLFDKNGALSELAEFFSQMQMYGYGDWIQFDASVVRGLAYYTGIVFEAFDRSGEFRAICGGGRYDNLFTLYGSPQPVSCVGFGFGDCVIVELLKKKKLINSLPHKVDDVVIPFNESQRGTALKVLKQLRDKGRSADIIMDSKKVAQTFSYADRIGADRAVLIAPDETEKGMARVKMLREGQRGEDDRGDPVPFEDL

Pks13 thioesterase: 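Polyketide synthase Pks13, Mycobacterium tuberculosis (UniProt I6X8D2). Enzyme assay of the thioesterase domain of polyketide synthase 13; the read-out is not stated. Compounds at 30 µM. The record gives no direction; the compounds picked for IC50 retests had high values, so higher reads as stronger inhibition. Size under these conditions: about 67,000 compounds, about 300 of them at 50% or above in at least one test.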
LiHisRS: 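Histidine-tRNA ligase, Leishmania infantum (UniProt A4I591). Enzyme assay of histidyl-tRNA synthetase; the read-out is not stated. Tested at 30 µM. The record gives no direction; compounds that gave an IC50 in retests scored well above the rest, so higher reads as stronger inhibition. The assay is labelled LdHisRS but filed under L. infantum. Of about 69,000 compounds tested this way, about 410 (0.6%) reached 50% or more in at least one test.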

Each number is a percent effect as filed.
The record does not define 0% and 100%; most values in the screen are far below 50% and negative numbers occur (in some assays of this library far below -100).
Compounds were drawn at random from those tested, without regard to their results.
A dash means the value is not listed here; it may have been measured.

structure	Pks13 thioesterase	LiHisRS
Cc1nc(CN2CCC3(CCCN(C(=O)c4cnccn4)C3)C2)cs1 (configuration not stated)	-32.02%	12.28%
CCN(Cc1ccc(C(C)C)cc1)C(=O)c1csc(CN(C)C)n1	-3.377%	4.918%
CCOc1cccc(CCNC(=O)Cc2ccccc2O)n1	-0.3338%	6.4%
Cc1ccc(C(NC(=O)C2CC2)c2cccc(S(C)(=O)=O)c2)cc1 (configuration not stated)	6.672%	9.524%
Cc1nn2c(N3CCCC(C#N)C3)cc(-c3ccccc3)nc2c1C (configuration not stated)	9.839%	9.677%
CN(C)c1ccc(-c2ccnc3c2ccn3C)nn1	20.8%	-14.4%
Cc1cc(N2CCN(Cc3nccn3C)CC2)cc(C)n1	-2.345%	6.731%
CC(O)CNc1c(NCc2ccco2)c(=O)c1=O (configuration not stated)	-10.51%	15.22%
CC1(C)Cc2cc(-c3cncn3CCNC3CCS(=O)(=O)C3)ccc2O1 (configuration not stated)	7.377%	14.08%
CN(C)c1ncccc1NC(=O)COCC1CC1	2.483%	8.889%
CC(=O)Nc1nc(C2CCN(C(=O)Cc3ccccc3)CC2)cs1	-	11.46%
Cn1nc(CNC(=O)C2CCN(S(C)(=O)=O)CC2)cc1C1CC1	3.104%	-24.72%
CS(=O)(=O)N1CCO[C@H]2[C@@H](Oc3ncccc3F)CC[C@@H]21	-8.406%	13.7%
O=C(NCCCN1CCOCC1)c1ccn(COc2ccc(Br)cc2)n1	-20.74%	13.79%
CC(NCC1CCN(CCO)CC1)c1ccc(F)c(Cl)c1 (configuration not stated)	-10.97%	21.92%
CN1CCC(NC(=O)Nc2cnn(-c3ccccc3Cl)c2)C1=O (configuration not stated)	-12.87%	12.5%
COc1cc(CN2CCCC2)ccc1OC12CCCN(CC1)C2 (configuration not stated)	-7.669%	18.68%
COCc1nn(C(C)C)c2c1CCN(Cc1nccs1)C2	-51.77%	24.19%
Cc1occc1C(=O)NCC(=O)N1CCCC(c2ccccc2)CC1 (configuration not stated)	24.14%	0.8403%
Cn1cc(CN2CCCN(C(=O)c3cc[nH]n3)CC2)cn1	-0.4484%	12.77%
Cc1nn(C)cc1CN(C)C(=O)c1ccncc1	-6.527%	14.16%
O=C(O)[C@@H]1CN(C(=O)Cc2ccccc2Cl)C[C@H]1C1CC1	-2.881%	2.041%
CC(C)CN1CC(c2nc(CCc3ccccc3)n[nH]2)CC1=O (configuration not stated)	-45.59%	11.46%
CC(=O)N(C)c1nc(CN2CCN(Cc3nccn3C)CC2)cs1	14.14%	-41.6%
c1cc(-c2noc(-c3cc(C4CC4)[nH]n3)n2)cc(N2CCCCC2)n1	-8.177%	15%
COc1ccc(NC(=O)Cn2nc(C)ccc2=O)cc1OC	-34.84%	7.767%
Cc1cc(C)cc(CN2CCN(C(=O)COCC3CCCO3)CC2=O)c1 (configuration not stated)	-29.03%	7.527%
c1ccc2c(c1)OCCC2NCc1ccc(N2CCOCC2)cc1 (configuration not stated)	-19.25%	17.14%
CC(C)(C)c1ncc(C(=O)NCCNC(=O)c2ccc(O)cc2)s1	-22.7%	9.821%
COc1cc(C(C)NCc2scnc2C)ccc1SC(F)F (configuration not stated)	10.85%	1.613%
Cc1nn(C)c2ncnc(N3CCCC(OCc4ccccn4)C3)c12 (configuration not stated)	-36.49%	17.14%
CC(C)(C)c1nc(CN2CCCC2CCc2ccccc2)no1 (configuration not stated)	-13.91%	-2.74%
Cn1cccc(NC(=O)NCCc2cccc(O)c2)c1=O	4.058%	54.95%
CN1CCN(Cc2cnc3n2CCN(C(=O)c2ccnnc2)C3)CC1	-27.23%	2.941%
Cc1ccc(C(=O)NCC(C)CN2CCCC2=O)c(=O)[nH]1 (configuration not stated)	-2.599%	22.22%
CCc1noc(CN2CCCN(C(N)=O)CC2)n1	-11.43%	-1.124%
COCCc1noc(Cn2ccc3ccccc3c2=O)n1	0.6344%	6.557%
Cc1c(CN2C[C@H](O)[C@@H](N3CCOCC3)C2)[nH]c2ccc(F)cc12	-5.072%	-7.692%
O=C1N(Cc2ccccn2)C[C@H]2CN(S(=O)(=O)c3ccccc3)CCN12	-34.96%	24.32%
CC(=O)NC1CCCN(C(=O)NCc2cc[nH]n2)C1 (configuration not stated)	1.299%	4.464%
CC(C)c1noc(C(C)N2CCN(Cc3cccs3)CC2)n1 (configuration not stated)	-9.168%	9.649%
O=C(c1ccccc1F)N1CCN(CCCn2cncn2)CC1	-21.81%	13.98%
Cc1nc(N2CCN(C(=O)c3cccnc3)CC2)cc(-n2cccc2)n1	-18.23%	15.25%
CC(CN1CCOCC1)OC(=O)c1cccc2cn[nH]c12 (configuration not stated)	-16.68%	1.299%
N#Cc1cccc(N2CCC(c3nccn3Cc3cscn3)CC2)n1	-23.5%	12.5%
Cc1ccc2c(n1)N(CC(C)C)CCN(C(=O)Cc1ccccn1)C2	-30.46%	24%
Cc1ccc(N2CCCC(NCc3cnc(C)s3)C2)nn1 (configuration not stated)	-	12.28%
Cc1noc(C)c1CN1CC[C@H]2OCC[C@@H](C(=O)NCC3CC3)[C@@H]2C1	-9.345%	13.21%
O=C1OCCN1CC(=O)N1C[C@H]2CC[C@@H]1CN(C(=O)c1ccccc1)C2	-31.04%	8.571%
CC(SCC(=O)NC(N)=O)c1ccc(Cl)cc1 (configuration not stated)	-	19.48%
CCCC(=O)NC1CCCN(C(=O)c2ccc(C)nc2)C1 (configuration not stated)	-6.101%	-1.075%
O=C(c1ccc(Br)o1)N1CCN(Cc2ccc(F)cc2)CC1	-16.42%	5.882%
CCn1ncnc1C1CC(=O)NCc2nc(N3CCOCC3)sc21 (configuration not stated)	6.883%	25.3%
Cc1nc(CN2C(=O)COC3(CCN(C(N)=O)CC3)C2C)cs1 (configuration not stated)	-4.707%	22.34%
COc1ccc(C[C@H]2CNCC[C@@H]2OCC2CC2)cc1	-28.54%	7.692%
Cc1cc(CN2C[C@@H]3COC[C@]3(CNC(=O)N(C)C)C2)no1	2.109%	-2.941%
CCOc1ncc(NC(=O)c2ccccn2)c(OCC)n1	-36.99%	0%

Repeated from the top, 3 entries:

{"structure": "Cc1nc(CN2CCC3(CCCN(C(=O)c4cnccn4)C3)C2)cs1", "stereo": "configuration not stated", "Pks13 thioesterase": -32.02, "LiHisRS": 12.28}
{"structure": "CCN(Cc1ccc(C(C)C)cc1)C(=O)c1csc(CN(C)C)n1", "Pks13 thioesterase": -3.377, "LiHisRS": 4.918}
{"structure": "CCOc1cccc(CCNC(=O)Cc2ccccc2O)n1", "Pks13 thioesterase": -0.3338, "LiHisRS": 6.4}

Source: ChEMBL document CHEMBL3988442, “University of Dundee, Small-Polar-MMV Screening Library” (2021).